# The other results are listed elsewhere or left out. Most values lie at the level of the controls, where differences are scatter.
# Sequences of proteins named here, by UniProt entry; tags and fusion partners are left off. A change or cut given only in a name is not applied to a line headed by its entry.
# UniProt Q9UBF1: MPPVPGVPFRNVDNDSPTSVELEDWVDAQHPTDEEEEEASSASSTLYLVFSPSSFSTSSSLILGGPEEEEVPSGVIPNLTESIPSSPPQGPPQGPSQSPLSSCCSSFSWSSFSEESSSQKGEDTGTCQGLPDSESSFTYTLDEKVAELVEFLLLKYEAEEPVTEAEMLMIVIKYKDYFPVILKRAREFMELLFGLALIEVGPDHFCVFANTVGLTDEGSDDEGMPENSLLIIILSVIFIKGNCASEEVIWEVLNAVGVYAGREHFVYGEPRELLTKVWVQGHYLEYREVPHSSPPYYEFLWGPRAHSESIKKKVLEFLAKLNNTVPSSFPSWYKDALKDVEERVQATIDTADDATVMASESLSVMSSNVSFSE
# UniProt Q9UH65: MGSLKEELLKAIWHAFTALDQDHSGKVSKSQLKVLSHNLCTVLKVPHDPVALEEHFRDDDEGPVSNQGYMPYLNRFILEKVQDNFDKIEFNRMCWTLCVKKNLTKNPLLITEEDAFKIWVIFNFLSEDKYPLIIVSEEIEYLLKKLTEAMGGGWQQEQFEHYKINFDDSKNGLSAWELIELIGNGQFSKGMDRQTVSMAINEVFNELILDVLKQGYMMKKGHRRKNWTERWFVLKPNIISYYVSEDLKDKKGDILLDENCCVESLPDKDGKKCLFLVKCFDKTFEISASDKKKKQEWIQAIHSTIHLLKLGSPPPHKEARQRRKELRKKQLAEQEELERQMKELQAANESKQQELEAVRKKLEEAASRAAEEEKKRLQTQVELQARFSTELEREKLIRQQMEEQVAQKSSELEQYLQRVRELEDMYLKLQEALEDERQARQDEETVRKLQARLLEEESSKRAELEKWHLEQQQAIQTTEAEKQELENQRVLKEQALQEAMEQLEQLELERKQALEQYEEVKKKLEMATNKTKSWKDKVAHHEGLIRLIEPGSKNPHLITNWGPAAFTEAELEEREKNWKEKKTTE
# UniProt Q9NZ63: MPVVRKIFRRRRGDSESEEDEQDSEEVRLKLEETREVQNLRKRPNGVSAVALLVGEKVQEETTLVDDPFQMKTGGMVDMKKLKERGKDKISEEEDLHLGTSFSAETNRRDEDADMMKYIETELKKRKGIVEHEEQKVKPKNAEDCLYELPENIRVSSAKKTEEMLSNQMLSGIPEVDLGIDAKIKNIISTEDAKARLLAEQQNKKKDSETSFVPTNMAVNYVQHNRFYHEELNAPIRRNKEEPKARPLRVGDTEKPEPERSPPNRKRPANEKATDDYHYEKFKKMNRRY
# UniProt Q9P2W1: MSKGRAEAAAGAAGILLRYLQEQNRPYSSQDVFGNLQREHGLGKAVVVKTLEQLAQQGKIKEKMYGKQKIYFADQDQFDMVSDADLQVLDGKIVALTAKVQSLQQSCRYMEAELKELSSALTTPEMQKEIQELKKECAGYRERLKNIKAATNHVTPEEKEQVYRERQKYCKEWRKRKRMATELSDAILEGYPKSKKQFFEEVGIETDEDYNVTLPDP
# UniProt Q9P0R6: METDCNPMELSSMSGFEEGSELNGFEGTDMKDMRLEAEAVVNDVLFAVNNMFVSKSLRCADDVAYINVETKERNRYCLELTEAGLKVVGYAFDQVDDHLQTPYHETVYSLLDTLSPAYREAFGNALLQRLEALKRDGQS
# UniProt Q9P0U3: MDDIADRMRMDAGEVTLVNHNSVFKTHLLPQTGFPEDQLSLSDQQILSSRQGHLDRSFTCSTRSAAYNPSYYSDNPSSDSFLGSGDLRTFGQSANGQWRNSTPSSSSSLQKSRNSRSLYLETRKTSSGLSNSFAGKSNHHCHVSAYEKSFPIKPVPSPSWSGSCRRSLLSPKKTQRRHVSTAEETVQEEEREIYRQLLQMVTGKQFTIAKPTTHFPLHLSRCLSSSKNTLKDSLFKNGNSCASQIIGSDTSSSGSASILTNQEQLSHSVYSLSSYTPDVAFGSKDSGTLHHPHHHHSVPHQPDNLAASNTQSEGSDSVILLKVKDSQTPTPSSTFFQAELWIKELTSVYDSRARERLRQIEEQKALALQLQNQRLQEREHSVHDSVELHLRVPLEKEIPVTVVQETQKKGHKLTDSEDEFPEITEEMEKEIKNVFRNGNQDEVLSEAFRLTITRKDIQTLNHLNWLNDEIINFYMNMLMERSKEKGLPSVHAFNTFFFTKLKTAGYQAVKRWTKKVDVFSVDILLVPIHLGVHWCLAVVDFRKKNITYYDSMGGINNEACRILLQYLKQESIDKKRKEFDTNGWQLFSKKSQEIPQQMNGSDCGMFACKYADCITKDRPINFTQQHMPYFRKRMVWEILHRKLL
# UniProt Q9P0N9: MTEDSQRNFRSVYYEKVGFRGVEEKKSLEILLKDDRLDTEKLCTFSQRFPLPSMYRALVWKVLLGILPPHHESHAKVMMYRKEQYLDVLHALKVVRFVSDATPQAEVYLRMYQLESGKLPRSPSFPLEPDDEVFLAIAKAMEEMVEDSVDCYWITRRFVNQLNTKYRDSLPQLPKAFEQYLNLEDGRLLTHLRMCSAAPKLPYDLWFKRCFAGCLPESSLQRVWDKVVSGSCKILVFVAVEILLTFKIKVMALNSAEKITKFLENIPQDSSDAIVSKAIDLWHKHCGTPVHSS
# UniProt Q9UIG0: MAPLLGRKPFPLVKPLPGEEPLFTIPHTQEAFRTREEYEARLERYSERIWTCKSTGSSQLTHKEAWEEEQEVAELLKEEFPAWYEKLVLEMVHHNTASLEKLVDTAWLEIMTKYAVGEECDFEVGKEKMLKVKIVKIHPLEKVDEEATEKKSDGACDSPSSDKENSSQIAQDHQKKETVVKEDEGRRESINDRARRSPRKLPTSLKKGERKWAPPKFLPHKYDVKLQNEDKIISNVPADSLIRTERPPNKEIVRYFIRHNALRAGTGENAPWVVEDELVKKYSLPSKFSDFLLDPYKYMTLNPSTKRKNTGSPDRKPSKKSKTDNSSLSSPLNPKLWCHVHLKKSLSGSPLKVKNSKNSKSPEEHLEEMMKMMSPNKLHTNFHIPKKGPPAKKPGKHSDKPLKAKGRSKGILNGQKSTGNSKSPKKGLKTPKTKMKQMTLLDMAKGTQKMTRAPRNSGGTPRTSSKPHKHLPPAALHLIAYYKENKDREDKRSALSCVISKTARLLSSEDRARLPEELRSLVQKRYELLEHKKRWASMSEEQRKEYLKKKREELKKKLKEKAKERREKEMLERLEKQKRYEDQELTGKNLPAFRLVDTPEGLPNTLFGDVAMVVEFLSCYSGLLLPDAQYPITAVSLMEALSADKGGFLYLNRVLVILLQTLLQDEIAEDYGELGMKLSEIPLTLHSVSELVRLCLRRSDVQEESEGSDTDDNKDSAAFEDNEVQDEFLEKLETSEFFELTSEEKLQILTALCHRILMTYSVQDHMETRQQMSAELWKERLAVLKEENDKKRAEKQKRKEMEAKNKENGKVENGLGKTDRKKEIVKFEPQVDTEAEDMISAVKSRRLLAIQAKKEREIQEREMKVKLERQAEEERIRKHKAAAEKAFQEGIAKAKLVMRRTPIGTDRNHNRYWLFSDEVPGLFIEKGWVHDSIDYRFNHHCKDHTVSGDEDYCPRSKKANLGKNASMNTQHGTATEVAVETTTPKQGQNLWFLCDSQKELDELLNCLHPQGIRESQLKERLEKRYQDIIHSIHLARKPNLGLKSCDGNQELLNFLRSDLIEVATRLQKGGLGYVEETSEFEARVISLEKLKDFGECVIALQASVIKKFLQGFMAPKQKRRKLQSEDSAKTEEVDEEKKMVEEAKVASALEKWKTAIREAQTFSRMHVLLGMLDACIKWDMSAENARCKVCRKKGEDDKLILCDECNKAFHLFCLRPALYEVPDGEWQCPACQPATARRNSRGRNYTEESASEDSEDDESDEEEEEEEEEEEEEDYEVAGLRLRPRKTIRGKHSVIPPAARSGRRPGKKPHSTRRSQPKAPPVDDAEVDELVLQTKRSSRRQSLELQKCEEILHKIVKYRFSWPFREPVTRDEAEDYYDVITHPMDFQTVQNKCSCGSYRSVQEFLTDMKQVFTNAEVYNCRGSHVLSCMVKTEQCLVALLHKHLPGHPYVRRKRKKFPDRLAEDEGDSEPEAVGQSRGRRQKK
# UniProt Q9UGI8: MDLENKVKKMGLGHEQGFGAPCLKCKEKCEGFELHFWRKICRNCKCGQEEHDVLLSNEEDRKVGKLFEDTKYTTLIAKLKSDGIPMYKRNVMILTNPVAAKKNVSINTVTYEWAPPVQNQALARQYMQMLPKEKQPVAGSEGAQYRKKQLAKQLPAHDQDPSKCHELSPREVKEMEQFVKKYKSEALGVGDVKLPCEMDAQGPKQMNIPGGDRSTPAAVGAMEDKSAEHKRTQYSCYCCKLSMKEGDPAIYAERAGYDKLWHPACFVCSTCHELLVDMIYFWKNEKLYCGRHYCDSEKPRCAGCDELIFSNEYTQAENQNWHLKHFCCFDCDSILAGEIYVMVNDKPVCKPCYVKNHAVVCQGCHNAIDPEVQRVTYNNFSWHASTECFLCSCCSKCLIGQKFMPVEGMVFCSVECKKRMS
# UniProt Q9P2Y4: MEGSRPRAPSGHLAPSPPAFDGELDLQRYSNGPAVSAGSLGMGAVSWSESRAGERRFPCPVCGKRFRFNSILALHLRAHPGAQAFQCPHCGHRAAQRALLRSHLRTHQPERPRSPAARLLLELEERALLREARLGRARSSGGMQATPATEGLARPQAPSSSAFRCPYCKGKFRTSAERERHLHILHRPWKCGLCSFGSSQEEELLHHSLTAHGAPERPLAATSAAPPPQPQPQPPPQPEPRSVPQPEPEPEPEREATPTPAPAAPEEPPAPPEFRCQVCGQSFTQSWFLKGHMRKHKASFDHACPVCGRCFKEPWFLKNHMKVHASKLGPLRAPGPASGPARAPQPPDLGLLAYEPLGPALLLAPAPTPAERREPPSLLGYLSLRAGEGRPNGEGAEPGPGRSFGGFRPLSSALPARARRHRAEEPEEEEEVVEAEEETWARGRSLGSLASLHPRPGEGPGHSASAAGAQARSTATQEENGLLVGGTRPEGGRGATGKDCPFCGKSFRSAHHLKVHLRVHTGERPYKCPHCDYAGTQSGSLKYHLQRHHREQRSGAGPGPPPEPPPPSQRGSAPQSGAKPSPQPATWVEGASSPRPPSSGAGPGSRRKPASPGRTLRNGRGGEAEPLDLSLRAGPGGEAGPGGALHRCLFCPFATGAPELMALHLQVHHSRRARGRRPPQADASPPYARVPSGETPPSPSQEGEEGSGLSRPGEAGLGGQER
# UniProt Q9UBT2: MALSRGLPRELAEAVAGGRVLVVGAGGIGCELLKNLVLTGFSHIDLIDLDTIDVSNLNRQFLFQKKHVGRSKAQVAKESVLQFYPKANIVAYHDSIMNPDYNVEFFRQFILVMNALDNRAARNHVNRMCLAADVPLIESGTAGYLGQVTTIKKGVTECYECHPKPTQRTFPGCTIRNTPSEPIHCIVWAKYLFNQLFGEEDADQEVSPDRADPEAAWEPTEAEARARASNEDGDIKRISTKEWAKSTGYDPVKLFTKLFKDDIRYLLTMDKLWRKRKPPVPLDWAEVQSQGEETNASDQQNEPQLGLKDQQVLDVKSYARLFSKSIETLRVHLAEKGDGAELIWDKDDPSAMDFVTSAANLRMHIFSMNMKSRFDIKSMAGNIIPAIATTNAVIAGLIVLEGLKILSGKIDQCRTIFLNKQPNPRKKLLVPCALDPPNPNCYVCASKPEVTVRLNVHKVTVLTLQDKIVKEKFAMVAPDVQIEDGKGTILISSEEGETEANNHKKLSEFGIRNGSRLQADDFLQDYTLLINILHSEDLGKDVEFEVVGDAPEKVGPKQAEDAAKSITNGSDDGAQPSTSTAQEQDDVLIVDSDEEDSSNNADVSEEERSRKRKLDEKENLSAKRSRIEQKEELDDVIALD
# UniProt Q9P2N2: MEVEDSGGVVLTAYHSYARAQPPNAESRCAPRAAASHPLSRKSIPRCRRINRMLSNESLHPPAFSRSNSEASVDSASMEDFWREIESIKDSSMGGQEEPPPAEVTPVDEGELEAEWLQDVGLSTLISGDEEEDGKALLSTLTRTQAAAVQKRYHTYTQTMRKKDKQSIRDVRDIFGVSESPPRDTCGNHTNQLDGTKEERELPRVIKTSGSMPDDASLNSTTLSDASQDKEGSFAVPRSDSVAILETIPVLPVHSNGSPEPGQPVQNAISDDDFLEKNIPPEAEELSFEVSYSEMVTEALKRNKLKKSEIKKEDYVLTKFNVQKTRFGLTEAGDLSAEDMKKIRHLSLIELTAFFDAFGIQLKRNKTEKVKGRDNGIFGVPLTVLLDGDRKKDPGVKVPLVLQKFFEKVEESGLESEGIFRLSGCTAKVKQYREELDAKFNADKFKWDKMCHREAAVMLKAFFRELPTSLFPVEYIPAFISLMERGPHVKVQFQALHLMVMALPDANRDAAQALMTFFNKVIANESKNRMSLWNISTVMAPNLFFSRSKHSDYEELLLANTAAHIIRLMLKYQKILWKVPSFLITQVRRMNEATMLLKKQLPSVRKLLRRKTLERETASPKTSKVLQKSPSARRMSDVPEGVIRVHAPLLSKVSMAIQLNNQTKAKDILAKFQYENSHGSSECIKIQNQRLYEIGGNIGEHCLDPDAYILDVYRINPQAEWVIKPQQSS
# Compound: CN[C@@H]1C[C@H]2O[C@@](C)([C@@H]1OC)n1c3ccccc3c3c4c(c5c6ccccc6n2c5c31)C(=O)NC4 [staurosporine]
# Test: log2 fold change of tryptic peptide abundance, ligand vs vehicle (limited proteolysis) (log2 ratio); higher = more trypsin-susceptible (destabilized)
# Settings: ligand concentration: 20 uM; sample: K562 cleared lysate; digestion: 4 min, 22 C (HT-PELSA RT4min, Orbitrap Astral)
row,Target,log2 fold change
1,"MAGEC2 (peptide sequence: PPVPGVPFR, peptide start residue: 2) (UniProt Q9UBF1)",0.0567
2,"ZMYM2 (peptide sequence: HFCDQHCLLR, peptide start residue: 789) (UniProt Q9UBW7)",0.245
3,"THYN1 (peptide sequence: NMVLFTR, peptide start residue: 194) (UniProt Q9P016)",0.416
4,"RNF14 (peptide sequence: IYLDLPQNFK, peptide start residue: 38) (UniProt Q9UBS8)",-0.346
5,"SWAP70 (peptide sequence: VAHHEGLIR, peptide start residue: 538) (UniProt Q9UH65)",0.358
6,"NCKIPSD (peptide sequence: LLLLLNRGDDPVR, peptide start residue: 590) (UniProt Q9NZQ3)",0.322
7,"C9orf78 (peptide sequence: VGDTEKPEPER, peptide start residue: 250) (UniProt Q9NZ63)",0.384
8,"PSMC3IP (peptide sequence: AATNHVTPEEKEQVYR, peptide start residue: 149) (UniProt Q9P2W1)",-0.194
9,"TSPYL4 (peptide sequence: NGCQLGEPR, peptide start residue: 115) (UniProt Q9UJ04)",0.483
10,"UniProt Q9UBD5 (peptide sequence: ELYCTCLEK, peptide start residue: 437)",0.941
11,"TMOD2 (peptide sequence: NIDEDELLGKLSEEELK, peptide start residue: 14) (UniProt Q9NZR1)",-0.34
12,"IPO11 (peptide sequence: MLALKDPVHTVSLQQFIYEK, peptide start residue: 921) (UniProt Q9UI26)",-0.133
13,"GSKIP (peptide sequence: YCLELTEAGLK, peptide start residue: 76) (UniProt Q9P0R6)",0.0558
14,"UniProt Q9P0U3 (peptide sequence: KTSSGLSNSFAGK, peptide start residue: 124)",0.736
15,"ZNFX1 (peptide sequence: NGHIYVIGDCGGAMER, peptide start residue: 1851) (UniProt Q9P2E3)",-0.223
16,"GGA1 (peptide sequence: NVIFEDEEK, peptide start residue: 166) (UniProt Q9UJY5)",-0.102
17,"NRBP1 (peptide sequence: FHKYWADIKENK, peptide start residue: 132) (UniProt Q9UHY1)",-0.56
18,"TBC1D7 (peptide sequence: MYQLESGKLPR, peptide start residue: 111) (UniProt Q9P0N9)",-0.162
19,"BAZ1B (peptide sequence: NKENGKVENGLGK, peptide start residue: 805) (UniProt Q9UIG0)",-0.567
20,"VPS18 (peptide sequence: AKEAEGGAATAGPSR, peptide start residue: 915) (UniProt Q9P253)",-0.555
21,"TES (peptide sequence: RTQYSCYCCK, peptide start residue: 231) (UniProt Q9UGI8)",-0.66
22,"ZNF219 (peptide sequence: REPPSLLGYLSLR, peptide start residue: 373) (UniProt Q9P2Y4)",0.145
23,"UBA2 (peptide sequence: ESVLQFYPK, peptide start residue: 78) (UniProt Q9UBT2)",0.135
24,"ARHGAP28 (peptide sequence: FGLTEAGDLSAEDMKK, peptide start residue: 327) (UniProt Q9P2N2)",-0.726
25,"CHD7 (peptide sequence: NVEGLDLLFMSHK, peptide start residue: 2518) (UniProt Q9P2D1)",-0.386
26,"CCDC88C (peptide sequence: LELELTR, peptide start residue: 328) (UniProt Q9P219)",-0.249

# Some of the entries so far, as tab-separated lines:
row	Target	log2 fold change
2	ZMYM2 (peptide sequence: HFCDQHCLLR, peptide start residue: 789) (UniProt Q9UBW7)	0.245
3	THYN1 (peptide sequence: NMVLFTR, peptide start residue: 194) (UniProt Q9P016)	0.416

# Reference: the supplement of paper PMC12819154, “High-throughput peptide-centric local stability assay extends protein–ligand identification to membrane proteins, tissues and bacteria” (Nature Structural & Molecular Biology, 2025)
